# Source: PubChem BioAssay (Tox21)
# By UniProt entry, the sequences of proteins in these tests, tags left out. Where a name states a change or a piece, a line headed by the entry shows the natural chain unless it says otherwise.
# UniProt P11229: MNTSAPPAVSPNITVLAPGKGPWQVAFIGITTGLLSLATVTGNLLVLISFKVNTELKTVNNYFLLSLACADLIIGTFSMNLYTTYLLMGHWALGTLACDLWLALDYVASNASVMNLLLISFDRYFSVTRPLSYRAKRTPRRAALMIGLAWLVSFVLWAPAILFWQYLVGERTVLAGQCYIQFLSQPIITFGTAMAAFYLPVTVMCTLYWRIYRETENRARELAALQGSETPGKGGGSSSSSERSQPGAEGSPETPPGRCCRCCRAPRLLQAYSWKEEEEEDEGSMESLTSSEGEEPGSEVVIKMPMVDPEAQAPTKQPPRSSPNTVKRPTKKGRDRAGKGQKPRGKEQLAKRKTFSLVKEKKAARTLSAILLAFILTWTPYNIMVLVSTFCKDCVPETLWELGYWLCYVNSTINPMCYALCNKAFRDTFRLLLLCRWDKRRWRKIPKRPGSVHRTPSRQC
# UniProt P28223, whole entry, looked up: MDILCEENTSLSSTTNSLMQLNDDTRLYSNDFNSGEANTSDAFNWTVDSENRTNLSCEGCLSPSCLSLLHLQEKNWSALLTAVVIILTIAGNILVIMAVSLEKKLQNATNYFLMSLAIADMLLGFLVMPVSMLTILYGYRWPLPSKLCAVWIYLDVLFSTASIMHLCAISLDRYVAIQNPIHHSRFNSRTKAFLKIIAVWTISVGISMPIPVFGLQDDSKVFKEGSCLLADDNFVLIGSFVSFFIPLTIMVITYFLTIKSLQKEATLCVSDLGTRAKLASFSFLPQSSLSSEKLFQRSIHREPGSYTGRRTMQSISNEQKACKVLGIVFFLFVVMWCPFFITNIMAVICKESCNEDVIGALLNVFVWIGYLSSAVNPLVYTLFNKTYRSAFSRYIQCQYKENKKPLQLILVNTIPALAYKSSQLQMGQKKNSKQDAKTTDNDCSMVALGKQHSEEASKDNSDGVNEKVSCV
# UniProt P14416, whole entry, looked up: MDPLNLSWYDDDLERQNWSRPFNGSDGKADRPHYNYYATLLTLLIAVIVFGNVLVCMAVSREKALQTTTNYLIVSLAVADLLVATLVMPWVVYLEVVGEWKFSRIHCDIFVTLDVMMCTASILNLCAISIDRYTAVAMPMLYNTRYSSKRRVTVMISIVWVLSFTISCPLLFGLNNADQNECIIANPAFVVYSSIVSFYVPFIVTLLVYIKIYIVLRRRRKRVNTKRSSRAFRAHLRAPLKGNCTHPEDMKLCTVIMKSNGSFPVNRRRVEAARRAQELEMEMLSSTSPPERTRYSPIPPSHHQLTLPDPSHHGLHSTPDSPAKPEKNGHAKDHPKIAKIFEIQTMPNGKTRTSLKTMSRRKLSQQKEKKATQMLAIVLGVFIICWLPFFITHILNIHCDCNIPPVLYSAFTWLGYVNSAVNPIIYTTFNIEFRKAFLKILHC
# “And” between values parts separate entries of the source, which are not always exact repeats. Identical values can stand only once. This list was built around the results that the source calls inconclusive (neither active nor inactive); the mix of calls is not that of the screen. For part of these data: Where the call is inconclusive, the potency comes from a doubtful curve fit. The source made the active and inactive calls. Unless noted, calls come from the whole dose curve.
# Assays:
# [1] = p53 small molecule agonists, cell-based qHTS assay: qHTS cell viability counter screen (AID 1963581); note: nearly all actives have a fitted effect of over 45% in size; note: potency is the fitted concentration of half-maximal effect
# Method in brief: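 ATP content measured by luminescence in HCT-116 p53RE-bla cells treated 16 h at 37 C, same wells as the reporter screen.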
# [2] = p53 small molecule agonists, cell-based qHTS assay (AID 1963582; active = well fitted activation curve with a large enough effect in the signal ratio in the repeat runs, not every such curve was filed as active; inconclusive = weak or mixed curves; the % refers to the signal ratio; note: potency is the fitted concentration of half-maximal effect; for activation: % is set by controls: 0 for no effect and ±100 for the full control effect); settings: HCT-116 p53RE-bla reporter, beta-lactamase FRET ratio, 16 h; activation: at 66 µM (top of the series) unless noted
# Method in brief: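 16 h compound exposure (37 C) of p53 response element–bla cells, preceded by 5 h recovery at 37 C/5% CO2; read-out via LiveBLAzer B/G FRET substrate, 2 h RT, fluorescence intensity.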
# [3] = cAMP Responsive Elements (CRE) small molecule agonists, cell-based qHTS assay (AID 1963590); settings: CRE-bla HEK293T, beta-lactamase FRET ratio, 3 h; activation: at 92.4 µM (top of the series) unless noted; note: potency is the fitted concentration of half-maximal effect; for activation: % is set by controls: 0 for no effect and ±100 for the full control effect
# Method in brief: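 HEK 293T cells stably bearing CRE-bla were plated at 2,000 cells per well and rested 18 h. Compounds, positive controls or DMSO were added for 3 h at 37 C. LiveBLAzer B/G substrate was then loaded for 2 h at room temperature.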
# [4] = cAMP Responsive Elements (CRE) small molecule antagonists, cell-based qHTS assay (AID 1963591; active = well fitted inhibition curve with a large enough effect in the signal ratio in the repeat runs, not every such curve was filed as active; inconclusive = weak or mixed curves, or effect the other way; the % refers to the signal ratio; note: potency is the fitted concentration of half-maximal effect; for activity change, negative = inhibition: % is set by controls: 0 for no effect and ±100 for the full control effect); settings: CRE-bla HEK293T, beta-lactamase FRET ratio
# Method in brief: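 First, CRE-bla HEK293T cells settled 18 h at 37 C. Next, compound and 0.25 uM final NKH477 were applied for 3 h. Last, LiveBLAzer B/G substrate was loaded for 2 h at room temperature.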
# [5] = molecular target: Beta-2 adrenergic receptor (Homo sapiens) (UniProt P07550); test: Adrenergic beta2 receptor (ADRB2) small molecule agonists, cell-based qHTS assay (AID 1963593); settings: CHO-ADRB2 cells, cAMP HTRF, 30 min; activation: at 92.4 µM (top of the series) unless noted; note: potency is the fitted concentration of half-maximal effect;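 for activation: CHO cells stably overexpressing human ADRB2; % is set by controls: 0 for no effect and ±100 for the full control effect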
# Method in brief: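 CHO cells stably over-expressing ADRB2 were plated overnight at 37C, then dosed with compounds plus a stimulation mix containing 100uM IBMX and 25uM Ro-20-1724 for 0.5hr at room temperature. cAMP was measured by HTRF competition, 1hr.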
# [6] = molecular target: Muscarinic acetylcholine receptor M1 (Homo sapiens) (UniProt P11229); test: Cholinergic receptor muscarinic 1 (CHRM1) small molecule antagonists, cell-based qHTS assay (AID 1963588); note: potency is the fitted concentration of half-maximal effect; nearly all actives have a fitted effect of over 40% in size
# Method in brief: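 Compounds were tested at 15 concentrations in three independent runs. Dye-loaded CHRM1-CHO cells were exposed 5 min at room temperature before stimulation by acetylcholine added at 50nM. Intracellular calcium was read kinetically on FDSS for 3 min.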
# [7] = molecular target: Beta-2 adrenergic receptor (Homo sapiens) (UniProt P07550); test: Adrenergic beta2 receptor (ADRB2) small molecule antagonists, cell-based qHTS assay (AID 1963592); settings: CHO-ADRB2 cells, isoproterenol-stimulated cAMP HTRF ratio, 0.5 h; activity change, negative = inhibition: at 92.4 µM (top of the series) unless noted; note: potency is the fitted concentration of half-maximal effect; nearly all actives have a fitted effect of over 50% in size
# Method in brief: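 Assay format: CHO-ADRB2 cells, 18-20hr seeding at 37C/5% CO2, then compound plus 1nM isoproterenol agonist mix for 0.5hr RT. Homogeneous time-resolved fluorescence cAMP detection after 1hr, expressed as 665/615 nm ratio.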
# [8] = molecular target: 5-hydroxytryptamine receptor 2A (Homo sapiens) (UniProt P28223); test: 5-hydroxytryptamine receptor 2A (HTR2A) small molecule antagonists, cell-based qHTS assay (AID 1963586); note: potency is the fitted concentration of half-maximal effect; nearly all actives have a fitted effect of over 45% in size
# Method in brief: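 CHO cells stably expressing human HTR2A were plated for 18 h at 37 C, then loaded with calcium dye for 1 h. Compounds were preincubated 5 min at room temperature before DOI (4 nM solution) was added. Kinetic fluorescence was read for 3 min.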
# [9] = molecular target: 5-hydroxytryptamine receptor 2A (Homo sapiens) (UniProt P28223); test: 5-hydroxytryptamine receptor 2A (HTR2A) small molecule agonists, cell-based qHTS assay (AID 1963587); note: % is set by controls: 0 for no effect and ±100 for the full control effect; nearly all actives have a fitted effect of over 30% in size
# Method in brief: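 CHO cells stably expressing human HTR2A, plated 18 h, loaded with calcium dye 1 h at 37 C. Agonist mode: compounds added and intracellular calcium fluorescence recorded kinetically for 2 min at 1 sec intervals.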
# [10] = molecular target: D(2) dopamine receptor (Homo sapiens) (UniProt P14416); test: Dopamine D2 receptor (DRD2) small molecule antagonists, cell-based qHTS assay (AID 1963595; active = well fitted inhibition curve with a large enough effect in the signal ratio in the repeat runs, with a control signal flat; inconclusive = weak or mixed curves, or effect the other way; the % refers to the signal ratio; note: potency is the fitted concentration of half-maximal effect); settings: HEK293-DRD2 cAMP HTRF antagonist mode; activity change, negative = inhibition: at 92.4 µM (top of the series) unless noted
# Method in brief: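 HEK293 cells stably expressing DRD2 were preincubated with 0.1 mM Ro20-1724, then with compound for 10 min at room temperature. Cells were stimulated with 200 nM NKH477 plus 12 nM quinpirole for 30 min, and cAMP was read by HTRF.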
# [11] = molecular target: D(2) dopamine receptor (Homo sapiens) (UniProt P14416); test: Dopamine D2 receptor (DRD2) small molecule agonists, cell-based qHTS assay (AID 1963594); settings: HEK293-DRD2 cAMP HTRF, agonist mode, 30 min; activation: at 92.4 µM (top of the series) unless noted; note: nearly all actives have a fitted effect of over 35% in size; note: potency is the fitted concentration of half-maximal effect
# Method in brief: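 HEK293 cells stably expressing human DRD2, pre-treated with PDE inhibitor Ro20-1724 (0.1 mM final) and compound 10 min at room temperature, then stimulated with NKH477 (200nM […]) for 30 min. cAMP read by HTRF (665/620 nm).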
# [12] = activity change, negative = inhibition: at 92.4 µM (top of the series) unless noted
smiles,measurement,setting,value
CCCCCCOC(C)=O,Potency,[1],"inconclusive: 1.86 µM [cytotoxic, full curve, poor fit] and inconclusive: 40.8 µM [cytotoxic, partial curve, poor fit]"
same,Potency,[2],inconclusive: 45.8 µM [fluorescent]
same,Potency,[3],inconclusive: 54.5 µM
same,"activity change, negative = inhibition",[4]; [12],inconclusive: 24%
same,"activity change, negative = inhibition",[4]; at 92.4 µM (top of the series),inactive: 0.0458%
same,Potency,[5],"inconclusive: 24.9 µM [activator, full curve, poor fit] and inconclusive: 2.73 µM [inhibitor, partial curve, poor fit]"
CCN1C(=O)c2ccccc2C1Nc1ccc(OCCN2CCCCC2)cc1 (stereo unspecified),Potency,[1],inactive
same,Potency,[2],inactive
same,Potency,[6],active: 3.65 µM
same,Potency,[5],inactive
C=C1C(CCl)(CCl)C2(Cl)C(Cl)C(Cl)C1(Cl)C2(Cl)Cl (stereo unspecified),Potency,[1],"inconclusive: 50.8 µM [cytotoxic, single point]"
same,Potency,[2],"inconclusive: 12.7 µM [rising, partial curve]"
same,Potency,[6],"inconclusive: 0.186 µM [inhibitor, full curve, poor fit]"
same,activation,[3],inconclusive: 14.6%
same,Potency,[4]; [12],"inconclusive: 67.8 µM [inhibitor, single point]"
same,Potency,[7],"inconclusive: 48 µM [activator, partial curve, poor fit]"
same,Potency,[5],inactive
NS(=O)(=O)c1cc(C(=O)NN2C[C@H]3[C@H]4CCC(C4)[C@H]3C2)ccc1Cl,Potency,[1],inactive
same,Potency,[2],"inconclusive: 25.1 µM [rising, single point]"
same,Potency,[8],"inconclusive: 20.5 µM [inhibitor, single point]"
same,Potency,[3],"inconclusive: 33.5 µM [rising, single point]"
same,Potency,[4]; [12],"inconclusive: 33.5 µM [activator, partial curve, poor fit]"
same,Potency,[5],inactive
c1cc(-c2ccncc2)ccn1,Potency,[1],inactive
same,Potency,[2],inactive
same,Potency,[9],inactive
same,Potency,[6],"inconclusive: 0.012 µM [inhibitor, full curve, poor fit]"
same,Potency,[3],inconclusive: 69.1 µM
same,"activity change, negative = inhibition",[4]; [12],inconclusive: -23.1%
same,"activity change, negative = inhibition",[4]; at 92.4 µM (top of the series),inactive: 1.87%
same,Potency,[10],"inactive and inconclusive: 2.73 µM [inhibitor, single point]"
O=C(O)c1ccccc1Nc1cccc(C(F)(F)F)c1,Potency,[1],"inconclusive: 51.3 µM [cytotoxic, single point]"
same,Potency,[2],"inconclusive: 12.9 µM [fluorescent, partial curve] and inconclusive: 7.07 µM [fluorescent, full curve, poor fit]"
same,Potency,[8],"inconclusive: 42.1 µM [inhibitor, single point]"
same,Potency,[6],inconclusive: 42.1 µM [inhibitor]
same,activation,[5],inconclusive: -60% [at 42.5 µM]
same,activation,[11],inconclusive: 21.7%
O=C(O)Cn1c(C(=O)Nc2nc(-c3ccccc3Cl)cs2)cc2ccccc21,Potency,[1],"inconclusive: 0.0028 µM [rising, full curve, poor fit]"
same,Potency,[2],"inconclusive: 0.0028 µM [rising, full curve, poor fit]"
same,Potency,[3],"inconclusive: 29.8 µM [rising, partial curve]"
same,"activity change, negative = inhibition",[4]; [12],inconclusive: 3.19% [at 42.4 µM]
same,Potency,[5],"inconclusive: 33.5 µM [inhibitor, single point]"
same,Potency,[11],inconclusive: 2.28 µM
CC(C)(C)c1ccc(C(=O)CCCN2CCC(OC(c3ccccc3)c3ccccc3)CC2)cc1,Potency,[1],active: 11.2 µM
same,Potency,[2],"inconclusive: 12.6 µM [falling, partial curve, poor fit]"
same,Potency,[3],inconclusive: 13.3 µM [fluorescent]
same,Potency,[4]; [12],"inconclusive: 5.96 µM [fluorescent, full curve, poor fit]"
same,activation,[5],inconclusive: 12.2% [at 42.5 µM]
CCN(CC)C(=O)/C(C#N)=C/c1cc(O)c(O)c([N+](=O)[O-])c1,Potency,[1],"inconclusive: 22.3 µM [rising, single point]"
same,activation,[2],inconclusive: 12.7% [at 30.3 µM]
same,Potency,[3],"inconclusive: 13.3 µM [rising, full curve]"
same,Potency,[4]; [12],inconclusive: 29.8 µM [fluorescent]
same,activation,[5],inconclusive: -6.76% [at 42.5 µM]
same,Potency,[11],"inconclusive: 5.31 µM [falling, partial curve, poor fit]"
CCN1CCCC1CNC(=O)c1cc(S(N)(=O)=O)ccc1OC (stereo unspecified),Potency,[1],"inconclusive: 2.57 µM [cytotoxic, full curve, poor fit]"
same,Potency,[2],"inconclusive: 51.3 µM [fluorescent, single point]"
same,Potency,[3],"inconclusive: 68.6 µM [rising, single point]"
same,Potency,[4]; [12],"inconclusive: 68.6 µM [activator, partial curve, poor fit]"
COC(=O)CCCCC(CCSS/C(CCO)=C(\C)N(C=O)Cc1cnc(C)nc1N)SC(C)=O (stereo unspecified),Potency,[1],"inconclusive: 0.089 µM [cytotoxic, single point]"
same,Potency,[2],inactive
same,Potency,[8],"inconclusive: 1.3 µM [inhibitor, partial curve, poor fit]"
same,Potency,[5],inactive
CCCC(=O)OCOC(=O)C1=C(C)NC(C)=C(C(=O)OC)C1c1cccc(Cl)c1Cl (stereo unspecified),Potency,[1],inactive
same,Potency,[2],inactive
same,Potency,[3],inactive
same,activation,[5],inconclusive: -24% [at 42.5 µM]
